From the supplement of paper PMC8166895 come the findings set out here.

SMILES strings stand for the structures. Several values for one entry are separate records, joined by “and”; a condition that tells them apart may be missing. Identical values can stand only once. Counter-ions that a name gives are not always drawn. The list shows a part of the results. Most entries show no effect beyond the scatter of the controls.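 Melting temperature was read by differential scanning fluorimetry in a single-replicate pilot screen of a library of approved drugs and clinical or known-target compounds. Compounds raising the melting point by at least 2 °C were the top stabilizing hits, and negative shifts mean destabilization.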 Where a SMILES comes first, the peptide text is derived from it. The star is where a group is joined. Cbz = O=C(OCc1ccccc1)*; CH2F = FC*

The assay has as its system SARS-CoV-2 main protease (Mpro, nsp5). Nature of the assay: thermal shift ΔTm of Mpro relative to plate average Tm; higher = stronger thermal stabilization of Mpro (binding). As to conditions: 10 µM; protein concentration 1 µM.
Regarding `CC(C)N(C[C@H]1O[C@@H](n2cnc3c(N)ncnc32)[C@H](O)[C@@H]1O)[C@H]1C[C@@H](CCc2nc3cc(C(C)(C)C)ccc3[nH]2)C1`, the “thermal shift ΔTm of Mpro” value was -0.0616 °C.
Next, `COC(=O)C1=C(C)NC(C)=C(C(=O)OCCN2CCN(C(c3ccccc3)c3ccccc3)CC2)C1c1cccc([N+](=O)[O-])c1` (stereo not drawn) [Manidipine 2HCl]: 0.0177 °C; `COC(=O)C1=C(C)NC(C)=C(C(=O)OCCN2CCN(C(c3ccccc3)c3ccccc3)CC2)C1c1cccc([N+](=O)[O-])c1` (stereo not drawn) [Manidipine]: 0.0612 °C.
With `COC(=O)C[C@H](NC(=O)[C@H](C)NC(=O)[C@@H](NC(=O)OCc1ccccc1)C(C)C)C(=O)CF` (Cbz-Val-Ala-Asp(OMe)-CH2F), the “thermal shift ΔTm of Mpro” value was found to be 7.41 °C.
In the case of `CCCN1C[C@H](CSC)C[C@@H]2c3cccc4[nH]cc(c34)C[C@H]21` [Pergolide mesylate], the “thermal shift ΔTm of Mpro” value is -0.0781 °C.
For the molecule `Cc1cc(C(N)=O)ccc1-n1c(CCC(=O)O)ccc1-c1ccc(-n2ccnc2)cc1`, the “thermal shift ΔTm of Mpro” value is 0.0821 °C.
Regarding `CC(=O)Nc1ccccc1` [Acetanilide], the “thermal shift ΔTm of Mpro” value was -0.0973 °C.
Turning to `O=C(/C=C/c1ccc2ccccc2n1)c1ccncc1`, the “thermal shift ΔTm of Mpro” value was -0.311 °C.
The result for `O=C(NCCCn1ccnc1)c1cc(-c2ccco2)on1` reads -0.0646 °C; that for `Clc1ccc(NN=C(c2ccccc2)c2ccccn2)nc1`, 0.0593 °C; that for `O=C(N/N=C/c1cc(O)c(O)cc1O)c1cc2ccccc2cc1O` [Dyngo-4a], 0.737 °C.
Next, `CC(C)(C)C(=O)Oc1ccc(S(=O)(=O)Nc2ccccc2C(=O)NCC(=O)O)cc1` [Sivelestat]: 0.146 °C; `CC(C(=O)O)c1ccc2c(c1)Cc1cccnc1O2` (stereo not drawn) [Pranoprofen]: 0.192 °C; `C[C@H]1COc2c(C3(N)CC3)c(F)cc3c(=O)c(C(=O)O)cn1c23` [Pazufloxacin Mesylate]: -0.199 °C.
Next, `CC[C@H]1OC(=O)C[C@@H](O)[C@H](C)[C@@H](O[C@@H]2O[C@H](C)[C@@H](O[C@H]3C[C@@](C)(O)[C@@H](O)[C@H](C)O3)[C@H](N(C)C)[C@H]2O)[C@@H](CC=O)C[C@@H](C)C(=O)/C=C/C(C)=C/[C@@H]1CO[C@@H]1O[C@H](C)[C@@H](O)[C@@H](OC)[C@H]1OC` [Tylosin tartrate]: 0.0675 °C.
For `O=C(/C=C/c1ccc(O)c(O)c1)c1ccc(O)cc1O` [Butein], the “thermal shift ΔTm of Mpro” value was determined as 1.46 °C.
With `C[C@H](Oc1ccc(S(C)(=O)=O)cc1C(=O)N1CCN(c2ncc(C(F)(F)F)cc2F)CC1)C(F)(F)F` [Bitopertin], the “thermal shift ΔTm of Mpro” value is -0.0836 °C.
Next, `O=C(Cl)C(=O)c1c[nH]c2ccccc12` [Indole-3-Glyoxylyl Chloride]: 0.0433 °C; `COc1ccc(Cl)cc1-c1cc(=O)[nH]c(=S)n1CC(N)=O`: 0.015 °C.
In the case of `O=C(CCCCCCC(=O)Nc1ccccc1)NO` [Vorinostat (SAHA, MK0683)], the “thermal shift ΔTm of Mpro” value is -0.0843 °C.
As to `CCNC(=O)CCC/C=C\C[C@@H]1[C@@H](/C=C/[C@@H](O)CCc2ccccc2)[C@H](O)C[C@@H]1O` [Bimatoprost], the “thermal shift ΔTm of Mpro” value worked out at 0.188 °C.
The result for `COC(=O)C1=C(C)NC(C)=C(C(=O)OC2CCCN(Cc3ccccc3)C2)C1c1cccc([N+](=O)[O-])c1` (stereo not drawn) [Benidipine HCl] reads -0.172 °C.
For `COC(=O)N[C@H](C(=O)N1CCC[C@H]1c1nc(-c2ccc3c(c2)O[C@@H](c2ccccc2)n2c-3cc3cc(-c4c[nH]c([C@@H]5CCCN5C(=O)[C@@H](NC(=O)OC)C(C)C)n4)ccc32)c[nH]1)C(C)C` [Elbasvir], the “thermal shift ΔTm of Mpro” value was 0.0588 °C.
The result for `Cc1ccc(NC(=O)c2cccc(N(C)C)c2)cc1NC(=O)c1ccc(O)cc1` reads 0.000703 °C; that for `O=C1NCCc2[nH]c(-c3ccncc3)cc21`, 0.113 °C.
For the molecule `COc1ccc(C2=C(N3CCOCC3)C(=O)N(c3ccc(Cl)c(Cl)c3)C2=O)cc1`, the “thermal shift ΔTm of Mpro” value amounted to 0.081 °C.
On to `O=C(Nc1cc2cc[nH]c2cn1)c1ccccc1`, for which the “thermal shift ΔTm of Mpro” value is -0.0908 °C.
Turning to `COc1ccc(S(=O)(=O)Nc2cccnc2Nc2ccc(O)cc2)cc1`, the “thermal shift ΔTm of Mpro” value came to 0.0982 °C.
Consider `c1cc2c(cc1[C@H]1OC[C@H]3[C@@H]1CO[C@@H]3c1ccc3c(c1)OCO3)OCO2` [Sesamin], for which the “thermal shift ΔTm of Mpro” value amounted to 0.00188 °C.
With `O=C1CC(=O)c2c(Cl)c(Cl)c(Cl)c(Cl)c21`, the “thermal shift ΔTm of Mpro” value was determined as 0.592 °C.
Take `O=C(O)c1ccc2c(c1)nc(Nc1cccc(Cl)c1)c1ccncc12` [CX-4945 (Silmitasertib)]: the “thermal shift ΔTm of Mpro” value stood at 0.219 °C.
With `CC1(C)O[C@@H]2C[C@H]3[C@@H]4CCC5=CC(=O)C=C[C@]5(C)[C@H]4[C@@H](O)C[C@]3(C)[C@]2(C(=O)CO)O1` [Desonide], the “thermal shift ΔTm of Mpro” value is -0.176 °C.
Take `Nc1nonc1C(=Nc1ccc(F)c(Cl)c1)NO`: the “thermal shift ΔTm of Mpro” value is -0.0272 °C.
The result for `CCN(CC)CCOc1ccc2c(c1)C(=O)c1cc(OCCN(CC)CC)ccc1-2` [Tilorone dihydrochloride] reads 0.214 °C; that for `NCCCCCNCC12CC3CC(CC(C3)C1)C2` [IEM 1754 dihydrobroMide], -0.246 °C.
For `Cc1cc(OCCCS(C)(=O)=O)cc(C)c1-c1cccc(COc2ccc3c(c2)OC[C@H]3CC(=O)O)c1`, the “thermal shift ΔTm of Mpro” value is -0.0926 °C and 0.0564 °C.
The result for `CCN(CC)C(=S)SSC(=S)N(CC)CC` [Disulfiram] reads -6.99 °C; that for `O=C(CCCCCN1C(=O)c2cccc3cccc(c23)C1=O)NO` [Scriptaid], -0.0612 °C.
